Reference: patent US20110105380A1, “Protection of Nano-Scale Particles from Immune Cell Uptake” (THE TRUSTEES OF THE UNIVERSITY OF PENNSYLVANIA, priority 2009, published 2011)
Results are given in words; binding and its absence hold for the method and conditions named. Some results given as binding are weak or reduced against the parent protein; the word gives no strength.

By UniProt entry, the sequences of proteins in these tests, tags left out. Residues count along the entry.
UniProt P78324, residues 31-373: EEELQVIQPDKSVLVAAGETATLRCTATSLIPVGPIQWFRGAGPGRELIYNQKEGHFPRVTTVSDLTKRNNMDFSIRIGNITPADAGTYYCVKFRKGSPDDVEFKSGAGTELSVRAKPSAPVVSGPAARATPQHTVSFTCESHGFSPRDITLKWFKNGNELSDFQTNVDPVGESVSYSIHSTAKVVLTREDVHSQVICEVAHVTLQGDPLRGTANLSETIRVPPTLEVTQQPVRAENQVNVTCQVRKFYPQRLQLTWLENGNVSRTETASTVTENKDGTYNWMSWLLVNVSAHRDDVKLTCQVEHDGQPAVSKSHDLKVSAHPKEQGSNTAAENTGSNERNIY

Legend:
[1] = target: recombinant biotinylated human CD47 extracellular domain fused to CD4d3+4-biotin (human); experiment: flow cytometry, soluble hSIRPα on hCD47-coated beads
[2] = target: recombinant biotinylated human CD47 extracellular domain fused to CD4d3+4-biotin (human); experiment: flow cytometry, soluble hSIRPα on hCD47-coated beads, saturation binding

- binding [1]: binds
- binding [2]: binds
Substance: soluble human SIRPα extracellular domain fused to GST (SIRPα1-GST) (from UniProt P78324 31-373) (receptor)
